Like-named read-outs stand apart in the source and are kept apart here. These are yes or no findings as the source states them, for the method shown. In cells and extracts the contact can be indirect. A yes stands for co-enrichment or nearness to the bait. Other partners may have been found. Blank lines part the entries; values can stand above or below the molecule they belong to.
Legend:
Assay in all cases: affinity purification with mass spectrometry; GFP-tagged SCF component immunoprecipitated from lysate of dissected Drosophila ovaries with GFP-MA trap beads (anti-GFP nanobody), 30 min at 4°C, 20 mM Tris-HCl pH 7.5, 50 mM NaCl, 5 mM EGTA, 0.5% Triton X-100; label-free quantitative mass spectrometry against ovaries expressing GFP alone
[1] = biological target: GFP-CG6758/Fbxo42 (Drosophila) (UniProt Q5BHY0)
[2] = biological target: SkpA fused with GFP (GFP-SkpA) (Drosophila) (UniProt O77430)
[3] = biological target: SkpA fused with GFP (GFP-SkpA) (Drosophila) (UniProt O77430); remark: listed apart in the source
[4] = biological target: GFP-CG6758/Fbxo42 (Drosophila) (UniProt Q5BHY0); remark: listed apart in the source

By UniProt entry, the sequences of proteins in these tests, tags left out. Where a name states a change or a piece, a line headed by the entry shows the natural chain unless it says otherwise.
UniProt Q5BHY0: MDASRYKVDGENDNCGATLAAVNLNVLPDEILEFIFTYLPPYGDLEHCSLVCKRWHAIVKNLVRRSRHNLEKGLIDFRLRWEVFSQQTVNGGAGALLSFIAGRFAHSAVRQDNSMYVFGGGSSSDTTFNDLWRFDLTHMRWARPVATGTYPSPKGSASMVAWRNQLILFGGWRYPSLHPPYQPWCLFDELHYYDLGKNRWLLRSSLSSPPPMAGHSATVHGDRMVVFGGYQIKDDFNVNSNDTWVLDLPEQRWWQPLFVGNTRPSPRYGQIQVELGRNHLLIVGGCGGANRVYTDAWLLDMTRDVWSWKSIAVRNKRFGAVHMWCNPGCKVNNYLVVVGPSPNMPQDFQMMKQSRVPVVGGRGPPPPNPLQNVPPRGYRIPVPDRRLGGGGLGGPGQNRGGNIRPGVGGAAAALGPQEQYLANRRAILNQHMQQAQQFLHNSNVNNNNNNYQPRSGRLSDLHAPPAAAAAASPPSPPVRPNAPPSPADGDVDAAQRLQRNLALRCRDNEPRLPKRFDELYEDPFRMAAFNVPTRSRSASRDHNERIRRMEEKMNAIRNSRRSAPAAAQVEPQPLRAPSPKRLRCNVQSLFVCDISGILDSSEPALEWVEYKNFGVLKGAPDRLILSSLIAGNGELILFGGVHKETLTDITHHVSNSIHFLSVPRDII
UniProt O77430: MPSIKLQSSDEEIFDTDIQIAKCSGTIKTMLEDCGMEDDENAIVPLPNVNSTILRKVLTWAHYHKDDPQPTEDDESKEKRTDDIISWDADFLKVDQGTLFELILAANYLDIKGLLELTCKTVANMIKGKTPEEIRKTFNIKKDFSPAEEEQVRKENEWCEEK
UniProt P23696: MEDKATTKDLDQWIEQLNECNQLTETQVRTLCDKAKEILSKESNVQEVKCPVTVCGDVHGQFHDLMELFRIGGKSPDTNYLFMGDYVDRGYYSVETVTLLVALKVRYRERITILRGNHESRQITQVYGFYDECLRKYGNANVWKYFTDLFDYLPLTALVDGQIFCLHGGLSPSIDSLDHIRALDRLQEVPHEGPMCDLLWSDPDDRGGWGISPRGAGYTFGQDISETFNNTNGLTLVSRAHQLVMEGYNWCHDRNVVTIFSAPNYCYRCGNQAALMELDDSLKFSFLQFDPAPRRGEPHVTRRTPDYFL
UniProt P92177: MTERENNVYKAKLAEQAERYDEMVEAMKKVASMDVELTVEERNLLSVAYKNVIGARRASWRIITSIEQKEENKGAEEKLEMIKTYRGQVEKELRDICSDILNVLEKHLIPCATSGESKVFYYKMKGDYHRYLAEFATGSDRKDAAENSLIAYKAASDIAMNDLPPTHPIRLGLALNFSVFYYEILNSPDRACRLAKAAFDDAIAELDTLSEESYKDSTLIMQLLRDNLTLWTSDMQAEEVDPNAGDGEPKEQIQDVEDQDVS
UniProt Q24311: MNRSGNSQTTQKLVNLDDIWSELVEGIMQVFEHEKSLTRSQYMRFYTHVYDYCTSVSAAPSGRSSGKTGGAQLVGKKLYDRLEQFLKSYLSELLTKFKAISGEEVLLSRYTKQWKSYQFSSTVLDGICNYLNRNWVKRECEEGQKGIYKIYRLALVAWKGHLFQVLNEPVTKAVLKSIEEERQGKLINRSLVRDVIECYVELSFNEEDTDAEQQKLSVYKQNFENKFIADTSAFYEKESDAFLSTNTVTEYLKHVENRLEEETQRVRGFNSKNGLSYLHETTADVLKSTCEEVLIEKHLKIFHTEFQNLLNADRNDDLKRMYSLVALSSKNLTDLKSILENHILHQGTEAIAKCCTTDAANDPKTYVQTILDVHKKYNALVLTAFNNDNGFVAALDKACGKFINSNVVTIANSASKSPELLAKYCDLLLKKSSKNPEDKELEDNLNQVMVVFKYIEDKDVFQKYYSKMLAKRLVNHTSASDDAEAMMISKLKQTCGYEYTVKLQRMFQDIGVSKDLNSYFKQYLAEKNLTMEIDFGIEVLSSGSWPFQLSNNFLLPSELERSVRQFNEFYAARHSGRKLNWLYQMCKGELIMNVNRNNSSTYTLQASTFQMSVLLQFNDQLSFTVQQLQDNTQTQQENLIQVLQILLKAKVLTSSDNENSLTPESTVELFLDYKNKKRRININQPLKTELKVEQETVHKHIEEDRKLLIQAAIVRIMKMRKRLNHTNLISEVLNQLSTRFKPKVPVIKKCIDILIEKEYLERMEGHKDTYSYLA

Molecule: catalytic (C) subunit of protein phosphatase 2A (PP2A) (from UniProt P23696 1-309)
binding [1]: binds

Molecule: CG6758/Fbxo42 (from UniProt Q5BHY0)
binding [2]: binds

B3: structural (A) subunit of protein phosphatase 2A (PP2A) (protein, UniProt P36179 1-591)
chain: MAASDKSVDDSLYPIAVLIDELKNEDVQLRLNSIKKLSTIALALGEERTRSELIPFLTETIYDEDEVLLALADQLGNFTSLVGGPEFAMYLIPPLESLATVEETVVRDKAVESLRTVAAEHSAQDLEIHVVPTLQRLVSGDWFTSRTSACGLFSVCYPRVTQPVKAELRANFRKLCQDETPMVRRAAANKLGEFAKVVETEYLKSDLIPNFVQLAQDDQDSVRLLAVEACVSIAQLLPQDDVEHLVLPTLRQCASDSSWRVRYMVAEKFVDLQKAVGPEITRVDLVPAFQYLLKDAEAEVRAAVATKVKDFCANLDKVNQVQIILSSILPYVRDLVSDPNPHVKSALASVIMGLSPMLGAYQTVEQLLPLFLIQLKDECPEVRLNIISNLDCVNDVIGIQQLSQSLLPAIVELAEDSKWRVRLAIIEYMPALAGQLGQEFFDQKLRGLCMGWLNDHVYAIREAATLNMKKLVEQFGAPWAEQAIIPMILVMSRNKNYLHRMTCLFCLNVLAEVCGTDITTKLLLPTVLLLAADPVANVRFNVAKTLQKISPFLEASVIDAQVKPTLDKLNTDTDVDVKHFAAQAIAGIAAA
binding [4]: binds

Next, values leading:

binding [1]: binds
Molecule: 14-3-3ε (from UniProt P92177 1-262)

binding [2]: binds
Molecule: Cul1 (from UniProt Q24311 1-774)

binding [3]: binds
B1: Slmb/βTrcp (protein, UniProt Q9VDE3 1-510)
chain: MMKMETDKIMDETNSNAQAFTTTMLYDPVRKKDSSPTYQTERELCFQYFTQWSESGQVDFVEHLLSRMCHYQHGQINAYLKPMLQRDFITLLPIKGLDHIAENILSYLDAESLKSSELVCKEWLRVISEGMLWKKLIERKVRTDSLWRGLAERRNWMQYLFKPRPGQTQRPHSFHRELFPKIMNDIDSIENNWRTGRHMLRRINCRSENSKGVYCLQYDDGKIVSGLRDNTIKIWDRTDLQCVKTLMGHTGSVLCLQYDDKVIISGSSDSTVRVWDVNTGEMVNTLIHHCEAVLHLRFNNGMMVTCSKDRSIAVWDMTSPSEITLRRVLVGHRAAVNVVDFDEKYIVSASGDRTIKVWSTSSCEFVRTLNGHKRGIACLQYRDRLVVSGSSDNSIRLWDIECGACLRVLEGHEELVRCIRFDTKRIVSGAYDGKIKVWDLVAALDPRAASNTLCLNTLVEHTGRVFRLQFDEFQIVSSSHDDTILIWDFLNFTPNENKTGRTPSPALMEH

binding [4]: binds
B2: 14-3-3ζ (protein, UniProt P29310 1-248)
chain: MSTVDKEELVQKAKLAEQSERYDDMAQAMKSVTETGVELSNEERNLLSVAYKNVVGARRSSWRVISSIEQKTEASARKQQLAREYRERVEKELREICYEVLGLLDKYLIPKASNPESKVFYLKMKGDYYRYLAEVATGDARNTVVDDSQTAYQDAFDISKGKMQPTHPIRLGLALNFSVFYYEILNSPDKACQLAKQAFDDAIAELDTLNEDSYKDSTLIMQLLRDNLTLWTSDTQGDEAEPQEGGDN

From article PMC7780726
